Results taken from paper PMC8546674.
No constants are given. Whether binding was seen depends on the method and setting. In cells and extracts the contact can be indirect. Binding calls can cover weak binding; strength is not graded here. For some of these results: Where a sequence is shown, tags or fusion partners need not be part of it.

Experiments:
ExsY-SNAP (B. cereus) = molecular target: T1, ExsY-SNAP (B. cereus) (UniProt Q7WTL8); test: pull-down; SNAP capture agarose beads (covalent capture of the SNAP fusion); whole-cell extracts of sporulating B. cereus WT cells producing SNAP fusions, hours 20, 24, 48, 72 at 20°C, and extracts of purified spores; immunoblot with anti-CotE or anti-SNAP antibodies
T1 sequence: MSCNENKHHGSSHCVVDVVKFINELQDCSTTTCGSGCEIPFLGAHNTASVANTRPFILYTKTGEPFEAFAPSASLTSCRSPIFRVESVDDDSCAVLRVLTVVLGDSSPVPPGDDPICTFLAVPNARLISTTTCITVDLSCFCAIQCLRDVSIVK

His6-CotY (B. cereus) = molecular target: T2, His6-CotY (B. cereus) (UniProt Q6Y3A5); test: pull-down; heterologous coexpression in E. coli BL21(DE3) (pETDuet system); lysate on Ni2+ beads, washes w1-w3, elutions E1-E3; immunoblot with anti-CotE and anti-His6 antibodies
T2 sequence: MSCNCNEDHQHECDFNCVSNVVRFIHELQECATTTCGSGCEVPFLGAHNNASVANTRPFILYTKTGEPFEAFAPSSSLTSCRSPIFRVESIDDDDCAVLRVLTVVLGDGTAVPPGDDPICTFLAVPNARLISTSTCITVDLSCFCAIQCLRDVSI

His6-ExsY (B. cereus) = molecular target: T3, His6-ExsY (B. cereus) (UniProt Q7WTL8); test: as above
T3 sequence: T1 sequence

[1] = molecular target: T4, CotY-SNAP (in the exsY mutant of ATCC 10876) (B. cereus ATCC 14579) (UniProt Q6Y3A5); test: pull-down; SNAP capture resin; whole-cell extracts of sporulating exsY mutant cells producing CotY-SNAP, hours 0, 24, 28, 48 and 72; immunoblot with anti-CotE and anti-SNAP antibodies
T4 sequence: T2 sequence

CotE (B. cereus (endogenous in ATCC 14579))
binding (ExsY-SNAP (B. cereus)): binds

CotE (produced in E. coli) (B. cereus)
binding (His6-CotY (B. cereus)): binds weakly | binding (His6-ExsY (B. cereus)): binds

CotE (in the exsY mutant of ATCC 10876)
binding [1]: binds
